Measurements taken from publication PMC4150058.
Results are given in words; binding and its absence hold for the method and conditions named. In cells and extracts the contact can be indirect. Some entries that bind do so weakly or less than the wild type.

Protein sequences, listed by entry. Tags and fused reporters are not part of them.
UniProt Q8N668: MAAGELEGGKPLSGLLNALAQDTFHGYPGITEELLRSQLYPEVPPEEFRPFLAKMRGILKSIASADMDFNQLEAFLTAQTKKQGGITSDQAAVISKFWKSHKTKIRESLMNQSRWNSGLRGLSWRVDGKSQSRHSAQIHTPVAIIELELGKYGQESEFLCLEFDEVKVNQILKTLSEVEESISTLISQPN
UniProt Q09472: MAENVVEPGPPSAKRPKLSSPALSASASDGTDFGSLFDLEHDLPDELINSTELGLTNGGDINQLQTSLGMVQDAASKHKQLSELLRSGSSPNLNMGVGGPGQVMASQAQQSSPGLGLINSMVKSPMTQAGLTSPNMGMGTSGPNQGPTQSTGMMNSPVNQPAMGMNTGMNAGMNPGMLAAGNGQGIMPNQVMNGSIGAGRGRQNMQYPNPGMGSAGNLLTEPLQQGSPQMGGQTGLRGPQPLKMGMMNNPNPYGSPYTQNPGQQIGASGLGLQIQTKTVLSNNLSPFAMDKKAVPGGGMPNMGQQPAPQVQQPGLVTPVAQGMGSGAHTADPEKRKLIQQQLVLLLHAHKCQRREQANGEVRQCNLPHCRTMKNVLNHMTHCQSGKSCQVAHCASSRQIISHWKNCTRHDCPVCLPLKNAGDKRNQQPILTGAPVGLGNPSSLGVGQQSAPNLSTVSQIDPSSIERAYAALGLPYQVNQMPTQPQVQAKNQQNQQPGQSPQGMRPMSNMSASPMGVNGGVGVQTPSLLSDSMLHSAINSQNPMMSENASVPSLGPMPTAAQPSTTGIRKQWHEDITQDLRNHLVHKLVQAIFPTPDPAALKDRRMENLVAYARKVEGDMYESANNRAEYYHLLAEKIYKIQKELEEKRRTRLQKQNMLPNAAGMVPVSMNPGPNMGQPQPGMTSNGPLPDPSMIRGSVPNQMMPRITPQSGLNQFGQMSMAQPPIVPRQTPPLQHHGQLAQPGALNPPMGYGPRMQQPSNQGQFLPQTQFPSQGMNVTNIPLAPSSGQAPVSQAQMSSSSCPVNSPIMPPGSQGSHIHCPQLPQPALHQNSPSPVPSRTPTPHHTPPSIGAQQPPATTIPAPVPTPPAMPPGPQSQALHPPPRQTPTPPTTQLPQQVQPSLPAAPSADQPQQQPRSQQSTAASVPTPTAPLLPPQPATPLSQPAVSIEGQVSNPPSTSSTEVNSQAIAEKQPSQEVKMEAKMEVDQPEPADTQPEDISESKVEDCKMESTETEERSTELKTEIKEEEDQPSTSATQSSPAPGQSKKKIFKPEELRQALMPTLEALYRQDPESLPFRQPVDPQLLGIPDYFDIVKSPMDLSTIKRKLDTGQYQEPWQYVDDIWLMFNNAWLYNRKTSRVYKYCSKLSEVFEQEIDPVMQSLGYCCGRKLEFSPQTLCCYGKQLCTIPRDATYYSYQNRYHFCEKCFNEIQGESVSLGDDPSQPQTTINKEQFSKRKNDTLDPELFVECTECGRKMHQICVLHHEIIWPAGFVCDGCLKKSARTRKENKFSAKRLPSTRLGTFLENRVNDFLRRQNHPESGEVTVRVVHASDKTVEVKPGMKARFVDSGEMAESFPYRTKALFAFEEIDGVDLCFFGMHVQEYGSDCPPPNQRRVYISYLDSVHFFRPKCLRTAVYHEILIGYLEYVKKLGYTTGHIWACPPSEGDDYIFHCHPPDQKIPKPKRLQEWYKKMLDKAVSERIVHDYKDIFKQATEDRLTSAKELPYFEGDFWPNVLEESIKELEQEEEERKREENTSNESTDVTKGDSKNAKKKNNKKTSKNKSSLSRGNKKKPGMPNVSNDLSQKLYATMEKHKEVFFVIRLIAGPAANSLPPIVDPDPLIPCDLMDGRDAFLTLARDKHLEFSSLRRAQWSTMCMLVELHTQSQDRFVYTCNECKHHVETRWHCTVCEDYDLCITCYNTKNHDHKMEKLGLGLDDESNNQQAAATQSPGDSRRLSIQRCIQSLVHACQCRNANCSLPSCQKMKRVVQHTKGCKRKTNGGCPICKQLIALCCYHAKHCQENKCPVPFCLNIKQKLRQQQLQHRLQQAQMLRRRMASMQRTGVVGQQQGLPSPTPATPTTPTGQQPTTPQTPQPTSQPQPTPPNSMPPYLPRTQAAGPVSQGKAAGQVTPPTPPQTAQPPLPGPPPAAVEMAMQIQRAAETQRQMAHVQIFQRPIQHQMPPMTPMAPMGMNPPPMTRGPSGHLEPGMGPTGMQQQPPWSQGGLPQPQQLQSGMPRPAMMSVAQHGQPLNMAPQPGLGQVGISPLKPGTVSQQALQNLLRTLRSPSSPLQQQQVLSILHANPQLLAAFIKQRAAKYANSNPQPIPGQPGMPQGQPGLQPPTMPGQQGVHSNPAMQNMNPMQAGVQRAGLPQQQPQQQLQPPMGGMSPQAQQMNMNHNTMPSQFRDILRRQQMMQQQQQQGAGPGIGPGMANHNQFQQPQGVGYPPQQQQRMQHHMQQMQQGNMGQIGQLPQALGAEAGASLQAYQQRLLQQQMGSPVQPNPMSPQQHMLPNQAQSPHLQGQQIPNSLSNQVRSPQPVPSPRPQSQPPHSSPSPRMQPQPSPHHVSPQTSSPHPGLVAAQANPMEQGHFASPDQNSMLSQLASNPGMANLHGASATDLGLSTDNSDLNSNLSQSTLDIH

Molecular target: GST–COMMD1 (UniProt Q8N668)
Test: pull-down; SW480 cells transfected with GST–COMMD1 (alone or with control or XIAP siRNA), treated with aspirin (10 mM, indicated times) or TNF (10 ng/µl, 2 h); GST-tagged protein isolated from whole-cell lysates on glutathione–agarose; western blot for p300 or RelA

binding: binds
Substance: p300 (from UniProt Q09472 1-2414) (enzyme)
